The structures given here were assigned with low confidence; some may be wrong.
Experiments:
BTK = BTK (Homo sapiens, UniProt Q06187); experiment: Cell Degradation: BTK degradation in TMD-8 cells, HTRF assay; conditions: 6 h treatment, IC50 (DC50) of BTK degradation
HEK-293 cells = experiment: HEK-293 Cytotoxicity Assay (CellTiter-Glo); conditions: 72 h incubation, CellTiter-Glo luminescence
Protocol: HEK-293 Cytotoxicity Assay
HEK-293 cells are treated with compounds diluted in 0.2% DMSO, dilution is done according to the following protocol: (1) make 500× stock solution in DMSO from 5 mM by 4-fold dilution, total 8 doses were included; (2) make 2× solution in cell culture medium by transferring 0.5 ul 500× stock solution into 125 ul medium; (3) 50 ul of 2× solution is added to cells and incubate for 72 h.
Add 25 μl of the CellTiter-Glo®Reagent [I (Promega)—Cat No. G7572] to each well in the 96-well plate. Mix contents for 2 minutes on an orbital shaker to induce cell lysis. Allow the plate to incubate at room temperature for 10 minutes to stabilize luminescent signal. Record luminescence on BMG PheraStar with luminescence protocol.
The IC50 value of a compound can be obtained by fitting the following equation. Y=Bottom+(TOP−Bottom)/(1+((IC50/X)^hillslope)) Wherein, X and Y are known values, and IC50, Hillslope, Top and Bottom are the parameters obtained by fitting with software. Y is the inhibition percentage (calculated from the equation), X is the concentration of the compound; IC50 is the concentration of the compound when the 50% inhibition is reached. The smaller the IC50 value is, the stronger the inhibitory ability of the compound is. […]

Chains of the proteins cited; added tags and fusions are not shown.
UniProt Q06187, whole entry: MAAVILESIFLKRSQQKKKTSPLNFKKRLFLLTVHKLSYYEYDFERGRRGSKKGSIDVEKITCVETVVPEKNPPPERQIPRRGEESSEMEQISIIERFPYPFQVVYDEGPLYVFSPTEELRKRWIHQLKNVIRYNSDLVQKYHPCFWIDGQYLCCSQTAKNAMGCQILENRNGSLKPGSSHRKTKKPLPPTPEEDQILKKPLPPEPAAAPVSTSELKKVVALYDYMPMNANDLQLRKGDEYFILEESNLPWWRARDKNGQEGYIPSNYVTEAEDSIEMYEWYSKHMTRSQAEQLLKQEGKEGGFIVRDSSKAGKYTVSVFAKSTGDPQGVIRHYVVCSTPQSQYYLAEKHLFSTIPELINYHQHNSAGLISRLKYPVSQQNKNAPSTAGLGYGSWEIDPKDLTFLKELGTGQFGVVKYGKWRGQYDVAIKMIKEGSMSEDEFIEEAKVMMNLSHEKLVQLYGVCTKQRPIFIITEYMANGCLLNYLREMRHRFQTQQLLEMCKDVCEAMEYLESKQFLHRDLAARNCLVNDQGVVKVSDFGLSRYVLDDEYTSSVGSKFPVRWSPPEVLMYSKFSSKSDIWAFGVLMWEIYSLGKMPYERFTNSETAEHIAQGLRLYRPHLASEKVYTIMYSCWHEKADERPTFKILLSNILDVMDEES

Cc1cc(-c2ncnc3[nH]c(-c4ccc(N5CCN(CC6CCN(c7ccc(N8CCC(=O)NC8=O)c(C)c7)CC6)CC5)cn4)cc23)ccc1[C@@H](C)NC(=O)c1nc(C(C)(C)C)no1
DC50 (BTK): 0.36 nM
IC50 (HEK-293 cells): > 10 µM

From patent US20230167118A1, “DEGRADATION OF BRUTON'S TYROSINE KINASE (BTK) BY CONJUGATION OF BTK INIDBITORS WITH E3 LIGASE LIGAND AND METHODS OF USE” (BEIGENE, LTD., priority 2020, published 2023)
